# According to article PMC4815073, “Targeting of tubulin polymerization and induction of mitotic blockage by Methyl 2-(5-fluoro-2-hydroxyphenyl)-1H-benzo[d]imidazole-5-carboxylate (MBIC) in human cervical cancer HeLa cell” (Journal of Experimental & Clinical Cancer Research : CR, 2016):
# How the values were obtained:
# [1] = test system: HepG-2 cells; assay: MTT cytotoxicity assay, HepG-2; format: cell-based; settings: Homo sapiens, HepG2, HepG-2, 24 hours
# Description: (§1) The human cervical cancer cell-line, HeLa (CCL-2.2; ATCC, Manassas, VA), HCT-116 (CCL-247; ATCC, Manassas, VA), A549 (CCL-185; ATCC, Manassas, VA), HepG-2 (HB-8065; ATCC, Manassas, VA) and WRL-68 (CL-48; ATCC, Manassas, VA), were obtained from American Type Culture Collection (ATCC). HeLa, A549, HepG2 and WRL68 cells were maintained in Dulbecco’s Modified Eagle Medium (DMEM, Life Technologies, Inc, Rockville, MD). HCT-116 was obtained in McCoy’s 5a Medium Modified (Life Technologies, Inc, Rockville, MD) supplemented with 10 % fetal bovine serum and 1 % penicillin/streptomycin. Cells were incubated at 37 °C in a humidified cell culture 5 % CO2 incubator. Cells were passaged until reaching 70-80-% confluency for experimental purposes.
# (§2) Cytotoxicity of MBIC was estimated by MTT assay. Briefly, 1 × 10^4 cells/well were seeded in a 96-well plate and incubated at 37 °C in 5 % CO2. After 24 h, cells were treated with different concentrations (0.02, 0.04, 0.1, 0.2, 0.4, 0.8, 1.5, 3, 6, 12, 25, 50 μM) of MBIC. 0.01 % DMSO was used as vehicle control. Cells were incubated for 24 and 48 h at 37 °C. […] The colorimetric assay was quantified at 570 nm wavelength using Chameleon V microplate reader (Hidex, Turku, Finland). The anti-proliferation activity of MBIC was expressed as an IC50 value. The percentage of cell viability was calculated as described previously.
# [2] = test system: HCT-116 cells; assay: MTT cytotoxicity assay, HCT-116; format: cell-based; settings: Homo sapiens, HCT-116, 48 hours
# Description: as §1, §2
smiles,measurement,setting,value
COc1cc2c(c(OC)c1OC)-c1ccc(OC)c(=O)cc1[C@@H](NC(C)=O)CC2 [Colchicine],IC50,[1],8.36 ± 0.9 µM
same,IC50,[2],3.44 ± 0.2 µM
